{"source": "patent EP3045469A1", "about": "“POLYMYXIN DERIVATIVE AND USES THEREOF” (priority 2015, dated 2016)", "key": {"Escherichia coli C175-94": {"test_system": "Escherichia coli C175-94", "assay": "Murine urinary infection efficacy study", "type": "in vivo", "experimental": "The study used 64 outbred, OF-1 female mice (Charles River, France) weighing 28 -32 grams and Escherichia coli C175-94 (serotype O8:K48:H4), a clinical isolate elaborating type 1fimbriae. The peptides were NAB815 (Lot 1054308) and polymyxin B (Sigma-Aldrich, batch BCBF8382V). The study was performed by Statens Serum Institut, Copenhagen, Denmark.\nThree days before the start of the study and during the study, the mice had free access to 5% glucose as drinking water.\nOn day 0, the urine was removed from the bladder by gently pressing the abdomen, Thereafter, the mouse was anaesthetized with approximately 0.15 ml of Zoletil mix s.c. A syringe with polyethylene catheter (Becton Dickison) containing the bacterial suspension was inserted via the urethra into the bladder and 50 µl of the bacterial inoculum was slowly injected into the bladder. Hereafter, the mouse was left in the cage. Mice were kept in a warming cabinet and were under surveillance until fully awake.\nAfter measuring the colony forming units (CFUs), the inoculum was determined to contain 9.38 log10 CFU/ml, corresponding to 8.08 log10 CFU/mouse.\nOn day 1 and on day 2 postinfection, the mice were treated subcutaneously with solutions (0.2 ml) containing NAB815, polymyxin B or vehicle (0.9% NaCl) twice a day. The treatment groups (six mice in each) were the following: vehicle control; NAB815, 0.25 mg/kg/dose; NAB815, 0.5 mg/kg/dose; NAB815, 1 mg/kg/dose; NAB815, 2 mg/kg/dose; polymyxin B, 0.25 mg/kg/dose; polymyxin B, 0.5 mg/kg/dose; polymyxin B, 1 mg/kg/dose; and polymyxin B, 2 mg/kg/dose. In addition, one group served as a pretreatment control to help to assess as how the infection has proceeded before the start of the treatment on day 1 postinfection.\nOn days 1, 2 and 3 postinfection urine was sampled for colony counts. On day 1 postinfection (pretreatment control group) and on day 3 postinfection (all the other groups) after the urine sample was taken, mice were sacrificed by cervical dislocation and bladder and kidneys were removed aseptically. The bladder and kidneys were stored at -80 °C and later homogenized in 0.5 and 1 ml saline, respectively.\nCFUs in urine were determined immediately within 2-3 hours after sampling. Frozen organs were thawed and homogenized with steel beads on a tissue lyser. All samples, urine, kidney and bladder, were 10 fold diluted in saline and 20-µl spots were applied on blood agar plates in duplicates. In addition, undiluted samples of urine (2-100 µl depending on the amount of urine) were spread on a separate agar plate to determine the lowest possible detection level of the colony counts. All agar plates were incubated 18-22 h at 35 °C in ambient air."}, "E. coli JMI 3328": {"test_system": "E. coli JMI 3328", "experimental": "(§1) Synergy studies were performed by using polymyxin derivatives in combination with rifampin, a model compound for such antibacterial agents that the intact outer membrane of Gram-negative bacteria acts as a permeability barrier."}, "E. coli ATCC 25922": {"test_system": "E. coli ATCC 25922", "experimental": "as §1"}, "K. pneumoniae ATCC 43816": {"test_system": "K. pneumoniae ATCC 43816", "experimental": "as §1"}, "[1]": {"details": "of all the 24 mice treated at 0.25-2 mg/kg/dose"}, "[2]": {"details": "NAB815 at 1 µg/mL, from 8 µg/mL to 0.25 µg/mL"}, "[3]": {"details": "in the presence of NAB815 at 1 µg/mL"}}, "note": "Part of at least one peptide drawing is inferred or uncertain, most often the ends. Where a SMILES comes first, the peptide text is derived from it. Bridges are numbered along the chain shown (N, C = ends). [ ]: non-standard residue; d: D form. The star is where a group is joined. Octanoyl = CCCCCCCC(=O)*; Dab = NCC[C@H](N)C(=O)O; Abu = CC[C@H](N)C(=O)O"}
{"smiles": "CCCCCCCC(=O)N[C@@H](CCN)C(=O)N[C@H](C(=O)N[C@@H](C(=O)N[C@H]1CCNC(=O)[C@H]([C@@H](C)O)NC(=O)[C@H](CCN)NC(=O)[C@H](CC)NC(=O)[C@H](CC(C)C)NC(=O)[C@@H](Cc2ccccc2)NC(=O)[C@H](CCN)NC1=O)[C@H](C)O)[C@@H](C)O", "note": "[NAB815, octanoyl - αDab -Thr - DThr-[cyclo-α,yDab - αDab - DPhe- Leu -Abu -αDab - Thr]] (Octanoyl-[Dab]T[dT][Dab][Dab][dF]L[Abu][Dab]T; lactam 4-C)", "values": [{"measurement": "CFU levels in urine, day 3 versus pretreatment control group on day 1 postinfection", "setting": "Escherichia coli C175-94; mice, 0.25 mg/kg/dose subcutaneously twice a day on days 1 and 2", "value": "no significant differences"}, {"measurement": "CFU levels in urine, day 3 versus pretreatment control group on day 1 postinfection", "setting": "Escherichia coli C175-94; mice, 0.5 mg/kg/dose subcutaneously twice a day on days 1 and 2", "value": "no significant differences"}, {"measurement": "CFU levels in urine, day 3 versus pretreatment control group on day 1 postinfection", "setting": "Escherichia coli C175-94; mice, 1 mg/kg/dose subcutaneously twice a day on days 1 and 2, p<0.01", "value": "significant reduction of CFU levels in urine"}, {"measurement": "CFU levels in urine, day 3 versus pretreatment control group on day 1 postinfection", "setting": "Escherichia coli C175-94; mice, 2 mg/kg/dose subcutaneously twice a day on days 1 and 2, p<0.05", "value": "significant reduction of CFU levels in urine"}, {"measurement": "dose-response in the CFUs in the bladder and in the kidneys", "setting": "Escherichia coli C175-94; mice, 0.25-2 mg/kg/dose subcutaneously twice a day", "value": "showed a tendency of a dose-response"}, {"measurement": "number of mice with bacterial levels below the detection limit in the kidneys", "setting": "Escherichia coli C175-94; [1]", "value": 20}, {"measurement": "number of mice with bacterial levels below the detection limit in the urine", "setting": "Escherichia coli C175-94; [1]", "value": 8}, {"measurement": "factor of decrease of the MIC of rifampin", "setting": "E. coli JMI 3328; [2]", "value": 32}, {"measurement": "MIC of rifampin", "setting": "E. coli JMI 3328; [3]", "value": 0.25, "unit": "µg/mL"}, {"measurement": "factor of decrease of the MIC of rifampin", "setting": "E. coli ATCC 25922; [2]", "value": 32}, {"measurement": "MIC of rifampin", "setting": "E. coli ATCC 25922; [3]", "value": 0.25, "unit": "µg/mL"}, {"measurement": "factor of decrease of the MIC of rifampin", "setting": "K. pneumoniae ATCC 43816; NAB815 at 1 µg/mL, from 16 µg/mL to 0.25 µg/mL", "value": 64}, {"measurement": "MIC of rifampin", "setting": "K. pneumoniae ATCC 43816; [3]", "value": 0.25, "unit": "µg/mL"}]}
